Experimental data as given in PMC3252277.
No constants are given. Whether binding was seen depends on the method and setting.

Biological target: recombinant full length LTBP-4 (human)
Experiment: SPR; interaction studies summarized in Table S2 (ADAMTSL, LTBP and fibrillin-1 peptides); which partner was coupled is not given; 25°C, HBS-EP buffer; both purified

binding: no binding
B1: recombinant full-length ADAMTSL-2 (protein, UniProt Q7TSK7 30-957)
chain: SDNSPTSNSLEGGADTTAYWWGEWTKWTACSRSCGGGVTSQERHCLQQRRKSVPGTGNRTCVGTSKRYQLCRVQECPPDGRSFREEQCVSFNSRVYDGRAYQWKPLYPDDYVHISSKPCDLHCSTVDGQRQLTVPARDGTSCKLTDLRGVCVSGKCEPIGCDGVLFSTHTLDKCGVCQGDGSSCTHVTGNYRKGNNHLGYSLVTHIPAGARDIQIVERKKSADVLALADEAGFYFFNGNYKVDSPKNFNIAGTVVKYRRPMDVYETGIEYIVAQGPTNQGLNVMVWNQNGKSPSITFEYTLLQSPHMHHLPPVYYSFSEAASQSTESTERQELDSARLLGFMQHNGSLYRQTSSERLGLNSQLFQPPAPEVELGPSRGQESNEVCKQASGGVCEGPPRGKGFQDHNATGRAFSADKDDREISAHFTSHELLSANTISDQLLGTGSESEEFSLNETMNSIFAQGAPRSSPAESLYVDYEENEGPAAYLINGSYLELSSDRINTSSEAPFPNTSASPPNLAGNRTHKARTRPKARKQGVSPADMYRWKLSSHEPCSATCTTGVMSTYAMCVRYDGVEVDDSYCDALTRPEPVHEFCAGRECQPRWETSSWSECSRTCGEGHQFRIVRCWKMLSPGFDSSVYSDLCEATEAVRPEERKTCRNPACGPQWEMSEWSECTAKCGERSVVTRDIRCSEDEKLCDPSTKPVGEKNCTGPPCDRQWTVSDWGPCSGSCGQGRTIRHVYCKTSDGRVVPESQCQTETKPLAIHPCGDKNCPAHWLAQDWERCNTTCGRGVKKRLVLCMELANGKPQIRSGPECGLARKPPEESTCFERPCFKWYTSPWSECTKTCGVGVRMRDVKCYQGTDIVRGCDPLVKPVGRQACDLQPCPTEPPDDSCQDQPGTNCALAIKVNLCGHWYYSKACCRSCRPPHS
